Measurements reported in PubChem BioAssay AID1508597 (Cure First, 2020)

Screen: 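Knock-downs altering ovarian cancer cell survival with or without PARP inhibitor rucaparib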 (primary screen)
Cells: human ovarian carcinoma lines grown from tumours: OCI-P5x (papillary serous) and OCI-C5x (clear cell)
Knock-down reagent: siRNA pool against human genes, 1.25 pmol siRNA per well
Duration: 72 h or 96 h, depending on the cell culture
Challenge: rucaparib 20 µM (about IC30) or vehicle, present until read-out
Detection: 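ATP luminescence measured at 72 or 96 h according to the culture, then normalised and expressed as percent viability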
Scale: viability, normalised: higher = more viable cells remaining
Call rule: 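a well counts as a hit if its normalised viability is under 80 percent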
Calls: active = viability under 80%; inactive = viability 80% or more
The deposit covers about 2,100 reagents; this is an unselected part. 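Calls flag viability under 80% in either arm, not effects specific to rucaparib; the reference for percent is not stated.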 Reagent sequences are not shown. Not given: the 100% reference.

gene knocked down	rucaparib or vehicle	cell line	technical replicate	viability, normalised (%)	Call
CDYL (chromodomain Y like)	Rucaparib	OCI-C5x (clear cell)	1	63.2	active
CDYL (chromodomain Y like)	Rucaparib	OCI-C5x (clear cell)	2	50.1	active
CDYL (chromodomain Y like)	Rucaparib	OCI-C5x (clear cell)	3	34.6	active
CDYL (chromodomain Y like)	Rucaparib	OCI-P5x (serous)	1	56.4	active
CDYL (chromodomain Y like)	Rucaparib	OCI-P5x (serous)	2	62.7	active
CDYL (chromodomain Y like)	Rucaparib	OCI-P5x (serous)	3	47.4	active
CDYL (chromodomain Y like)	Vehicle	OCI-C5x (clear cell)	1	32.1	active
CDYL (chromodomain Y like)	Vehicle	OCI-C5x (clear cell)	2	50.4	active
CDYL (chromodomain Y like)	Vehicle	OCI-C5x (clear cell)	3	53.5	active
CDYL (chromodomain Y like)	Vehicle	OCI-P5x (serous)	1	64.9	active
CDYL (chromodomain Y like)	Vehicle	OCI-P5x (serous)	2	81.6	inactive
CDYL (chromodomain Y like)	Vehicle	OCI-P5x (serous)	3	70.5	active
MYO3A (myosin IIIA)	Rucaparib	OCI-C5x (clear cell)	1	68.8	active
MYO3A (myosin IIIA)	Rucaparib	OCI-C5x (clear cell)	2	57.7	active
MYO3A (myosin IIIA)	Rucaparib	OCI-C5x (clear cell)	3	66.6	active
MYO3A (myosin IIIA)	Rucaparib	OCI-P5x (serous)	1	101	inactive
MYO3A (myosin IIIA)	Rucaparib	OCI-P5x (serous)	2	90.7	inactive
MYO3A (myosin IIIA)	Rucaparib	OCI-P5x (serous)	3	71.4	active
MYO3A (myosin IIIA)	Vehicle	OCI-C5x (clear cell)	1	101	inactive
MYO3A (myosin IIIA)	Vehicle	OCI-C5x (clear cell)	2	45	active
MYO3A (myosin IIIA)	Vehicle	OCI-C5x (clear cell)	3	71.5	active
MYO3A (myosin IIIA)	Vehicle	OCI-P5x (serous)	1	89.1	inactive
MYO3A (myosin IIIA)	Vehicle	OCI-P5x (serous)	2	78.6	active
MYO3A (myosin IIIA)	Vehicle	OCI-P5x (serous)	3	78.9	active
MAD2L1 (mitotic arrest deficient 2 like 1)	Rucaparib	OCI-C5x (clear cell)	1	55.7	active
MAD2L1 (mitotic arrest deficient 2 like 1)	Rucaparib	OCI-C5x (clear cell)	2	59.5	active
MAD2L1 (mitotic arrest deficient 2 like 1)	Rucaparib	OCI-C5x (clear cell)	3	70.4	active
MAD2L1 (mitotic arrest deficient 2 like 1)	Rucaparib	OCI-P5x (serous)	1	104	inactive
MAD2L1 (mitotic arrest deficient 2 like 1)	Rucaparib	OCI-P5x (serous)	2	96.2	inactive
MAD2L1 (mitotic arrest deficient 2 like 1)	Rucaparib	OCI-P5x (serous)	3	65.1	active
MAD2L1 (mitotic arrest deficient 2 like 1)	Vehicle	OCI-C5x (clear cell)	1	41.1	active
MAD2L1 (mitotic arrest deficient 2 like 1)	Vehicle	OCI-C5x (clear cell)	2	42.1	active
MAD2L1 (mitotic arrest deficient 2 like 1)	Vehicle	OCI-C5x (clear cell)	3	46.8	active
MAD2L1 (mitotic arrest deficient 2 like 1)	Vehicle	OCI-P5x (serous)	1	87.3	inactive
MAD2L1 (mitotic arrest deficient 2 like 1)	Vehicle	OCI-P5x (serous)	2	91.9	inactive
MAD2L1 (mitotic arrest deficient 2 like 1)	Vehicle	OCI-P5x (serous)	3	86.6	inactive
USP3 (ubiquitin specific peptidase 3)	Rucaparib	OCI-C5x (clear cell)	1	50	active
USP3 (ubiquitin specific peptidase 3)	Rucaparib	OCI-C5x (clear cell)	2	58.5	active
USP3 (ubiquitin specific peptidase 3)	Rucaparib	OCI-C5x (clear cell)	3	51.8	active
USP3 (ubiquitin specific peptidase 3)	Rucaparib	OCI-P5x (serous)	1	32.3	active
USP3 (ubiquitin specific peptidase 3)	Rucaparib	OCI-P5x (serous)	2	33.7	active
USP3 (ubiquitin specific peptidase 3)	Rucaparib	OCI-P5x (serous)	3	33.7	active
USP3 (ubiquitin specific peptidase 3)	Vehicle	OCI-C5x (clear cell)	1	51.4	active
USP3 (ubiquitin specific peptidase 3)	Vehicle	OCI-C5x (clear cell)	2	40.8	active
USP3 (ubiquitin specific peptidase 3)	Vehicle	OCI-C5x (clear cell)	3	30	active
USP3 (ubiquitin specific peptidase 3)	Vehicle	OCI-P5x (serous)	1	58.2	active
USP3 (ubiquitin specific peptidase 3)	Vehicle	OCI-P5x (serous)	2	54	active
USP3 (ubiquitin specific peptidase 3)	Vehicle	OCI-P5x (serous)	3	45.5	active
EPC2 (enhancer of polycomb 2)	Rucaparib	OCI-C5x (clear cell)	1	76.6	active
EPC2 (enhancer of polycomb 2)	Rucaparib	OCI-C5x (clear cell)	2	56.1	active
EPC2 (enhancer of polycomb 2)	Rucaparib	OCI-C5x (clear cell)	3	60.5	active
EPC2 (enhancer of polycomb 2)	Rucaparib	OCI-P5x (serous)	1	64.3	active
EPC2 (enhancer of polycomb 2)	Rucaparib	OCI-P5x (serous)	2	78.4	active
EPC2 (enhancer of polycomb 2)	Rucaparib	OCI-P5x (serous)	3	77.6	active
EPC2 (enhancer of polycomb 2)	Vehicle	OCI-C5x (clear cell)	1	52.5	active
EPC2 (enhancer of polycomb 2)	Vehicle	OCI-C5x (clear cell)	2	66.2	active
EPC2 (enhancer of polycomb 2)	Vehicle	OCI-C5x (clear cell)	3	57.6	active
EPC2 (enhancer of polycomb 2)	Vehicle	OCI-P5x (serous)	1	66.1	active
EPC2 (enhancer of polycomb 2)	Vehicle	OCI-P5x (serous)	2	73.7	active
EPC2 (enhancer of polycomb 2)	Vehicle	OCI-P5x (serous)	3	79.6	active

9 of these entries in another layout:
| gene knocked down | rucaparib or vehicle | cell line | technical replicate | viability, normalised (%) | Call |
| --- | --- | --- | --- | --- | --- |
| USP3 (ubiquitin specific peptidase 3) | Vehicle | OCI-P5x (serous) | 2 | 54 | active |
| USP3 (ubiquitin specific peptidase 3) | Vehicle | OCI-P5x (serous) | 3 | 45.5 | active |
| EPC2 (enhancer of polycomb 2) | Rucaparib | OCI-C5x (clear cell) | 1 | 76.6 | active |
| EPC2 (enhancer of polycomb 2) | Rucaparib | OCI-C5x (clear cell) | 2 | 56.1 | active |
| EPC2 (enhancer of polycomb 2) | Rucaparib | OCI-C5x (clear cell) | 3 | 60.5 | active |
| EPC2 (enhancer of polycomb 2) | Rucaparib | OCI-P5x (serous) | 1 | 64.3 | active |
| EPC2 (enhancer of polycomb 2) | Rucaparib | OCI-P5x (serous) | 2 | 78.4 | active |
| EPC2 (enhancer of polycomb 2) | Rucaparib | OCI-P5x (serous) | 3 | 77.6 | active |
| EPC2 (enhancer of polycomb 2) | Vehicle | OCI-C5x (clear cell) | 1 | 52.5 | active |
